In the supplement of paper PMC5949888:
Most values lie at the floor of the assay. Slopes are relative: functional sequences can read slightly below zero.

These substances were tested on Saccharomyces cerevisiae PS128 hsf1 delta, HSF1(1-493) fusion (assay: growth estimate (transactivation domain function in HSF1 fusion, heat-shock survival) (a.u. (slope of normalised read count over time)); higher = stronger growth at 37°C, i.e. more transactivation activity). Details: library: random library.
TFNRSNETTRNP showed a growth estimate of less than -0.25.
TFPHVHVHTTRSSPTIHSGP was tested, and the growth estimate was less than -0.25.
TFPSFRVVPASLTLNDP showed a growth estimate of less than -0.25.
Substance TFRCATRLFYSRAASIKHDG has a growth estimate of less than -0.25.
TFRKAKESGILV gave a growth estimate of less than -0.25.
Substance TFRRSVGPKTSMPNTFQLAV has a growth estimate of less than -0.25.
Work on TFT yielded a growth estimate of 0.207.
TFTDFCIR showed a growth estimate of less than -0.25.
TFTRGGPLADYGRS was tested, and the growth estimate was less than -0.25.
TFVGLGCHTVT showed a growth estimate of -0.192.
In the case of TFVGRNIGAGGSPTQRGN, the growth estimate was less than -0.25.
In the case of TFVLEPVKCRGT, the growth estimate was less than -0.25.
In the case of TFWR, the growth estimate was less than -0.25.
TFYGDDDL showed a growth estimate of less than -0.25.
Work on TGAALVRGATSNYI yielded a growth estimate of less than -0.25.
TGAGQHWVIKYHQVNH was tested, and the growth estimate was less than -0.25.
Substance TGAN has a growth estimate of less than -0.25.
Substance TGARTQLKGLKQLFPFPVTP has a growth estimate of -0.239.
For TGAYQRIGKRRRTPGTGCKE, the growth estimate was less than -0.25.
TGCNRREIRCKGTVSSCHVE showed a growth estimate of less than -0.25.
TGDRARSSVNRVASRGSVGY was tested, and the growth estimate was less than -0.25.
TGEPAWQTGAIALSRLRTVY showed a growth estimate of less than -0.25.
With TGERVFGMRTSVAREDVLLM the growth estimate was less than -0.25.
Substance TGF has a growth estimate of less than -0.25.
Work on TGFMTRGAQLLLRKFVGFEK yielded a growth estimate of less than -0.25.
Substance TGGHHKRLQHGAVCPVGVID has a growth estimate of less than -0.25.
Substance TGGRSYLVTMRGVTRASRQS has a growth estimate of less than -0.25.
For TGGVAIVGVRHFGISRG, the growth estimate was less than -0.25.
Substance TGHEENSLTSKRSSFRQYTE has a growth estimate of less than -0.25.
TGHLRHLPNSHG gave a growth estimate of less than -0.25.
For TGIFDRNWSAPGITKPGYRR, the growth estimate was less than -0.25.
TGIGEACKSSQERSGSCMRC showed a growth estimate of less than -0.25.
TGIRPRG was tested, and the growth estimate was -0.246.
In the case of TGLCTWRKT, the growth estimate was less than -0.25.
TGLGVLRTVNAPRKA showed a growth estimate of less than -0.25.
Work on TGLRAMKGGWGQ yielded a growth estimate of -0.241.
Substance TGMGPGLSCNCDIRRQGLKQ has a growth estimate of less than -0.25.
With TGMRGGVNSLVPVRPPTTW the growth estimate was less than -0.25.
Work on TGNLSAWNHPRGEQHGT yielded a growth estimate of less than -0.25.
TGNRQCNSLVECHARTKQGW showed a growth estimate of less than -0.25.
Work on TGNVEKSGVCRGSKGQTGST yielded a growth estimate of less than -0.25.
TGPRTTVIAQFSGTQPG gave a growth estimate of less than -0.25.
In the case of TGPRVSFHLDLPYVINGPRS, the growth estimate was less than -0.25.
TGPVRKNGDFVHGSFE showed a growth estimate of -0.25.
In the case of TGQTLLSVINRFGLH, the growth estimate was less than -0.25.
With TGRGAPTARLEGTVMGSRVR the growth estimate was less than -0.25.
In the case of TGRGLTKH, the growth estimate was less than -0.25.
Substance TGRIVSSGFLVD has a growth estimate of less than -0.25.
In the case of TGRRATLLGSSRYSVLRVAH, the growth estimate was less than -0.25.
TGSGNTKR was tested, and the growth estimate was less than -0.25.
Work on TGSIMVRLCWPFLGMPCYHL yielded a growth estimate of less than -0.25.
Substance TGSRSFASHTV has a growth estimate of less than -0.25.
TGSWIAHESLFWNDSSKEGC was tested, and the growth estimate was less than -0.25.
TGSYAQKGTGSSRRVSSDCM was tested, and the growth estimate was less than -0.25.
With TGT the growth estimate was less than -0.25.
Work on TGTDYLQSGRPPGMRTFRLR yielded a growth estimate of 0.0112.
Substance TGTPGGFG has a growth estimate of less than -0.25.
TGVESVYEVF showed a growth estimate of less than -0.25.
Substance TGVP has a growth estimate of less than -0.25.
For TGVSAVVTVGAL, the growth estimate was less than -0.25.
TGVSRYGIHSAIRCAVGPAS showed a growth estimate of less than -0.25.
For TGVTKLRKE, the growth estimate was less than -0.25.
TGVVGVLFDADIYGVPNLRC was tested, and the growth estimate was -0.245.
With TGVVRLKRNEACCSRAV the growth estimate was less than -0.25.
TGWMRRKALFVFWHRVQHLP gave a growth estimate of less than -0.25.
For TGYMPG, the growth estimate was less than -0.25.
TGYYPFFSARSTLCEDRLRR was tested, and the growth estimate was -0.178.
With THCHSLSHVLKSVCPR the growth estimate was less than -0.25.
THGPTLGWDRC was tested, and the growth estimate was less than -0.25.
Substance THGSS has a growth estimate of less than -0.25.
For THGVSTGSSEALFGFGYPGY, the growth estimate was less than -0.25.
THLFQVRWLTSHNEGAVVMS showed a growth estimate of less than -0.25.
THLVSLFFLSGKRPVDRECG gave a growth estimate of less than -0.25.
THMICGK showed a growth estimate of -0.246.
With THNM the growth estimate was less than -0.25.
For THQRGCNRQVPGRIQSLW, the growth estimate was less than -0.25.
For THQSVTGTAGTAGGP, the growth estimate was less than -0.25.
Work on THRK yielded a growth estimate of less than -0.25.
With THSTRVSRHLRCN the growth estimate was less than -0.25.
TIAFGRLDHIVSADNWYDQC gave a growth estimate of less than -0.25.
TICGRGDWYDGVAAHCLRAT was tested, and the growth estimate was less than -0.25.
TIERGRRNWCENPGQGCVGR gave a growth estimate of less than -0.25.
TIGCHPLHIGYVTSLLGIGT gave a growth estimate of less than -0.25.
TIGSLSRSLLLGASISSCKR was tested, and the growth estimate was less than -0.25.
For TIK, the growth estimate was less than -0.25.
For TIKRVRVPGLHKSSVVLSTL, the growth estimate was less than -0.25.
TILFFKE gave a growth estimate of less than -0.25.
TIPYVQSFTKIGLGAG was tested, and the growth estimate was less than -0.25.
TISERAPNQM gave a growth estimate of less than -0.25.
TISGNTVRCKAVTIDKSILC gave a growth estimate of less than -0.25.
For TIYL, the growth estimate was less than -0.25.
TKADPEGPLAGSHRAVVIAQ showed a growth estimate of less than -0.25.
TKARASDFSKPAC was tested, and the growth estimate was less than -0.25.
With TKCTYVPPHRILRGIN the growth estimate was less than -0.25.
TKGAAGRYCSLICEIGSPTR was tested, and the growth estimate was less than -0.25.
TKGYPTLMKRMRIVAVVSHA showed a growth estimate of less than -0.25.
With TKILP the growth estimate was less than -0.25.
Substance TKIS has a growth estimate of less than -0.25.
TKKAESAVDREGSCFMGKSG was tested, and the growth estimate was -0.243.
In the case of TKRVLSYGVTFVKCLQRVVG, the growth estimate was less than -0.25.
In the case of TKSGWGSWGPQVICS, the growth estimate was less than -0.25.
Work on TKTSLQGVQAKMATRIVKGA yielded a growth estimate of less than -0.25.
TKV gave a growth estimate of less than -0.25.
TKVAQQAS showed a growth estimate of less than -0.25.
Work on TKVKNPRAGSSSSIVVRETR yielded a growth estimate of less than -0.25.
With TKWTSPPELLPACLF the growth estimate was -0.241.
TKYRN showed a growth estimate of less than -0.25.
TLA gave a growth estimate of less than -0.25.
Work on TLAADFRIAC yielded a growth estimate of less than -0.25.
Work on TLACKS yielded a growth estimate of less than -0.25.
With TLAKERQ the growth estimate was less than -0.25.
For TLAMHARCAKRAGNIVVSAN, the growth estimate was less than -0.25.
TLARETQFDLSK was tested, and the growth estimate was less than -0.25.
TLCLRGCML gave a growth estimate of less than -0.25.
Substance TLCRYITW has a growth estimate of -0.222.
For TLDMACPENQQHLCF, the growth estimate was less than -0.25.
For TLDQNVSLRLVFPVKLRQGN, the growth estimate was less than -0.25.
In the case of TLDVGGSSLNGGFTYIKQRD, the growth estimate was less than -0.25.
TLGVVVLHARG was tested, and the growth estimate was less than -0.25.
Work on TLHRATLYMRDPSCYRRDIT yielded a growth estimate of less than -0.25.
Substance TLHRENRQSLRPS has a growth estimate of -0.243.
In the case of TLICMGYFAAYLPNNQWPRM, the growth estimate was less than -0.25.
Work on TLIFVSPRLDKIIPR yielded a growth estimate of less than -0.25.
Substance TLILWLRSVKW has a growth estimate of less than -0.25.
Work on TLIPSLGIGGTQGHTFPSPG yielded a growth estimate of less than -0.25.
For TLIVVRKLS, the growth estimate was less than -0.25.
With TLLHAGV the growth estimate was less than -0.25.
TLLRTLGRCRRGHSVTDPPG was tested, and the growth estimate was less than -0.25.
TLLWLVCTGNSTLTAVVRGS showed a growth estimate of less than -0.25.
Work on TLMDRIKSWTSGFAIIALLR yielded a growth estimate of less than -0.25.
Work on TLMFVGEG yielded a growth estimate of less than -0.25.
Work on TLMGGCTEILHLH yielded a growth estimate of less than -0.25.
TLQVKFYDPIASRQGDVRGM was tested, and the growth estimate was less than -0.25.
In the case of TLRGSPGPNSHSV, the growth estimate was less than -0.25.
In the case of TLRIHPIVSV, the growth estimate was less than -0.25.
TLRKWVRGVPCGLLQYTRTQ gave a growth estimate of less than -0.25.
TLSQKALHKDANFIQHFLRY gave a growth estimate of less than -0.25.
TLSRRGRLSLAHC was tested, and the growth estimate was less than -0.25.
TLSYQIRQRPTRPLINTPPA gave a growth estimate of less than -0.25.
For TLTEKPPDKVPLRARLFLEH, the growth estimate was less than -0.25.
TLTPGWTCPVSSDTGISVCG gave a growth estimate of -0.246.
TLTSALSMVLTLGGL showed a growth estimate of less than -0.25.
Work on TLTSLNPIFVAHCAPRSPKA yielded a growth estimate of less than -0.25.
With TLVMPTASHPLC the growth estimate was less than -0.25.
TLVTAAVGIRKPKMPG showed a growth estimate of less than -0.25.
